Data: publication PMC11017495
No constants are given. Whether binding was seen depends on the method and setting. In cells and extracts the contact can be indirect. Some binding calls cover weakened binding; strength is not graded here.

Molecular target: T1, DExH-box helicase 58 (DHX58), endogenous in liver tissues (not stated (endogenous in liver tissues; mouse and human livers were used in the paper)) (UniProt Q99J87)
T1 sequence: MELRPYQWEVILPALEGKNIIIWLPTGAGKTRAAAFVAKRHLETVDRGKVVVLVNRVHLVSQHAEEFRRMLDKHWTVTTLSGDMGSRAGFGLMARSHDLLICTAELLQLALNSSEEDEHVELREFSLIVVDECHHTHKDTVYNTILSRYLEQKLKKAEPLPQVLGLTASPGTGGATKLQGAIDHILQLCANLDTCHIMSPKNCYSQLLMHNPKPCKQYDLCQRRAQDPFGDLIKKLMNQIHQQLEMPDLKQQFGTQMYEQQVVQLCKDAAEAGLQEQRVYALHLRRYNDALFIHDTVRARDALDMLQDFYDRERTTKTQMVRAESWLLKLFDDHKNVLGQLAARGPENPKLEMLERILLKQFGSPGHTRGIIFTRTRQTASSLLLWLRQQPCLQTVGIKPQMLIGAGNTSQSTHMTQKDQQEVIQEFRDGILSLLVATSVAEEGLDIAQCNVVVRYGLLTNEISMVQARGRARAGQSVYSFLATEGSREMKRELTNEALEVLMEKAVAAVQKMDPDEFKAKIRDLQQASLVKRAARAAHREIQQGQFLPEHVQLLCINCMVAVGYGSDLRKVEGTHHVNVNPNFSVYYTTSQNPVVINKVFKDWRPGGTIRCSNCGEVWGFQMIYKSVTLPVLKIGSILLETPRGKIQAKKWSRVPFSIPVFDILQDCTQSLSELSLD
Assay: co-IP; endogenous proteins in liver tissue lysates; extracts incubated with the antibodies and protein beads overnight, Western blotting

B1: YT521-B homology domain containing 2 (YTHDC2), endogenous in liver tissues (protein, UniProt B2RR83 1-1445)
chain: MSRPSSVSPRPPAPSGGGTGGGGGGSGGGGGGGGGGPASCGPGGGGRAKGLKDIRIDEEVKIAVNIALERFRYGDQREMEFPSSLTSTERAFIHRLSQSLGLVSKSKGKGANRYLTVKKKDGSETAHAMMTCNLTHNTKHAVRSLIQRFPVTNKERTELLPKTERGNVFAVEAENREMSKTSGRLNNGIPQVPVKRGESEFDSFRQSLPVFEKQEEIVKIIKENKVVLIVGETGSGKTTQIPQFLLDDCFKNGIPCRIFCTQPRRLAAIAVAERVAAERRERIGQTIGYQIRLESRVSPKTLLTFCTNGVLLRTLMAGDSTLSTVTHVIVDEVHERDRFSDFLLTKLRDLLQKHPTLKLILSSAALDVNLFIRYFGSCPVIYIQGRPFEVKEMFLEDILRTTGYTNKEMLKYKKEKQREEKQQTTLTEWYSAQENTFKPESQRQRAVASVSEEYDLLDDGGDAVFSQLTEKDVNCLEPWLIKEMDACLSDIWLHKDVDAFAQVFHLILTENVSVDYRHSETSATALMVAAGRGFTSQVEQLISMGANVHSKASNGWMALDWAKHFGQTEIVDLLESYSASLEFGNLDESSLVQTNGNDLSAEDRELLKAYHHSFDDEKVDLDLIMHLLYNICHSCDAGAILIFLPGYDEIVGLRDRILFDDKRFADNTHRYQVFMLHSNMQTSDQKKVLKNPPAGVRKIILSTNIAETSITVNDVVFVIDSGKVKEKSFDALNFVTMLKMVWISKASAIQRKGRAGRCRPGICFRLFSRLRFQNMLEFQTPELLRMPLQELCLHTKLLAPVNCTIADFLMKAPEPPPALIVRNAVQMLKTIDAMDAWEDLTELGYHLADLPVEPHLGKMVLCAVVLKCLDPILTIACTLAYRDPFVLPTQASQKRAAMLCRKRFTAGTFSDHMALLRAFQAWQKARSDGWERAFCEKNFLSQATMEIIIGMRTQLLGQLRASGFVRARGGGDIRDVNTNSENWAVVKAALVAGMYPNLVHVDRENVILTGPKEKKVRFHPTSVLSQPQYKKIPPANGQAAAIQALPTDWLIYDEMTRAHRIANIRCCSAVTPVTVLVFCGPARLASNALQEPSSFRADGIPNDSSDSEMEDRTTANLAALKLDEWLNFKLEPEAASLLLQLRQKWHSLFLRRMRAPSKPWSQVDEATIRAIIAVLSTEEQSAGLQQPSGIGQRPRPMSSEELPLASSWRSNNSRKSTADTEFADGSTTGERVLMKSPSPALHPPQKYKDRGILHPKRSTDDRSDQSSVKSTDSSSYPSPCASPSPPSSGKGSKSPSPRPNMPIRYFIMKSSNLRNLEISQQKGIWSTTPSNERKLNRAFWESSMVYLVFSVQGSGHFQGFSRMSSEIGREKSQDWGSAGLGGVFKVEWIRKESLPFQFAHHLLNPWNDNKKVQISRDGQELEPQVGEQLLQLWERLPLGEKTTSD
- binding: binds
